Assay results: PMC11770177, “Skeletal progenitor LRP1 deficiency causes severe and persistent skeletal defects with Wnt pathway dysregulation” (Bone Research, 2025)
These are yes or no findings as the source states them, for the method shown.

The chains behind the UniProt entries cited, without tags or fusion partners. Residues count along the entry.
UniProt Q07954, residues 20-4544: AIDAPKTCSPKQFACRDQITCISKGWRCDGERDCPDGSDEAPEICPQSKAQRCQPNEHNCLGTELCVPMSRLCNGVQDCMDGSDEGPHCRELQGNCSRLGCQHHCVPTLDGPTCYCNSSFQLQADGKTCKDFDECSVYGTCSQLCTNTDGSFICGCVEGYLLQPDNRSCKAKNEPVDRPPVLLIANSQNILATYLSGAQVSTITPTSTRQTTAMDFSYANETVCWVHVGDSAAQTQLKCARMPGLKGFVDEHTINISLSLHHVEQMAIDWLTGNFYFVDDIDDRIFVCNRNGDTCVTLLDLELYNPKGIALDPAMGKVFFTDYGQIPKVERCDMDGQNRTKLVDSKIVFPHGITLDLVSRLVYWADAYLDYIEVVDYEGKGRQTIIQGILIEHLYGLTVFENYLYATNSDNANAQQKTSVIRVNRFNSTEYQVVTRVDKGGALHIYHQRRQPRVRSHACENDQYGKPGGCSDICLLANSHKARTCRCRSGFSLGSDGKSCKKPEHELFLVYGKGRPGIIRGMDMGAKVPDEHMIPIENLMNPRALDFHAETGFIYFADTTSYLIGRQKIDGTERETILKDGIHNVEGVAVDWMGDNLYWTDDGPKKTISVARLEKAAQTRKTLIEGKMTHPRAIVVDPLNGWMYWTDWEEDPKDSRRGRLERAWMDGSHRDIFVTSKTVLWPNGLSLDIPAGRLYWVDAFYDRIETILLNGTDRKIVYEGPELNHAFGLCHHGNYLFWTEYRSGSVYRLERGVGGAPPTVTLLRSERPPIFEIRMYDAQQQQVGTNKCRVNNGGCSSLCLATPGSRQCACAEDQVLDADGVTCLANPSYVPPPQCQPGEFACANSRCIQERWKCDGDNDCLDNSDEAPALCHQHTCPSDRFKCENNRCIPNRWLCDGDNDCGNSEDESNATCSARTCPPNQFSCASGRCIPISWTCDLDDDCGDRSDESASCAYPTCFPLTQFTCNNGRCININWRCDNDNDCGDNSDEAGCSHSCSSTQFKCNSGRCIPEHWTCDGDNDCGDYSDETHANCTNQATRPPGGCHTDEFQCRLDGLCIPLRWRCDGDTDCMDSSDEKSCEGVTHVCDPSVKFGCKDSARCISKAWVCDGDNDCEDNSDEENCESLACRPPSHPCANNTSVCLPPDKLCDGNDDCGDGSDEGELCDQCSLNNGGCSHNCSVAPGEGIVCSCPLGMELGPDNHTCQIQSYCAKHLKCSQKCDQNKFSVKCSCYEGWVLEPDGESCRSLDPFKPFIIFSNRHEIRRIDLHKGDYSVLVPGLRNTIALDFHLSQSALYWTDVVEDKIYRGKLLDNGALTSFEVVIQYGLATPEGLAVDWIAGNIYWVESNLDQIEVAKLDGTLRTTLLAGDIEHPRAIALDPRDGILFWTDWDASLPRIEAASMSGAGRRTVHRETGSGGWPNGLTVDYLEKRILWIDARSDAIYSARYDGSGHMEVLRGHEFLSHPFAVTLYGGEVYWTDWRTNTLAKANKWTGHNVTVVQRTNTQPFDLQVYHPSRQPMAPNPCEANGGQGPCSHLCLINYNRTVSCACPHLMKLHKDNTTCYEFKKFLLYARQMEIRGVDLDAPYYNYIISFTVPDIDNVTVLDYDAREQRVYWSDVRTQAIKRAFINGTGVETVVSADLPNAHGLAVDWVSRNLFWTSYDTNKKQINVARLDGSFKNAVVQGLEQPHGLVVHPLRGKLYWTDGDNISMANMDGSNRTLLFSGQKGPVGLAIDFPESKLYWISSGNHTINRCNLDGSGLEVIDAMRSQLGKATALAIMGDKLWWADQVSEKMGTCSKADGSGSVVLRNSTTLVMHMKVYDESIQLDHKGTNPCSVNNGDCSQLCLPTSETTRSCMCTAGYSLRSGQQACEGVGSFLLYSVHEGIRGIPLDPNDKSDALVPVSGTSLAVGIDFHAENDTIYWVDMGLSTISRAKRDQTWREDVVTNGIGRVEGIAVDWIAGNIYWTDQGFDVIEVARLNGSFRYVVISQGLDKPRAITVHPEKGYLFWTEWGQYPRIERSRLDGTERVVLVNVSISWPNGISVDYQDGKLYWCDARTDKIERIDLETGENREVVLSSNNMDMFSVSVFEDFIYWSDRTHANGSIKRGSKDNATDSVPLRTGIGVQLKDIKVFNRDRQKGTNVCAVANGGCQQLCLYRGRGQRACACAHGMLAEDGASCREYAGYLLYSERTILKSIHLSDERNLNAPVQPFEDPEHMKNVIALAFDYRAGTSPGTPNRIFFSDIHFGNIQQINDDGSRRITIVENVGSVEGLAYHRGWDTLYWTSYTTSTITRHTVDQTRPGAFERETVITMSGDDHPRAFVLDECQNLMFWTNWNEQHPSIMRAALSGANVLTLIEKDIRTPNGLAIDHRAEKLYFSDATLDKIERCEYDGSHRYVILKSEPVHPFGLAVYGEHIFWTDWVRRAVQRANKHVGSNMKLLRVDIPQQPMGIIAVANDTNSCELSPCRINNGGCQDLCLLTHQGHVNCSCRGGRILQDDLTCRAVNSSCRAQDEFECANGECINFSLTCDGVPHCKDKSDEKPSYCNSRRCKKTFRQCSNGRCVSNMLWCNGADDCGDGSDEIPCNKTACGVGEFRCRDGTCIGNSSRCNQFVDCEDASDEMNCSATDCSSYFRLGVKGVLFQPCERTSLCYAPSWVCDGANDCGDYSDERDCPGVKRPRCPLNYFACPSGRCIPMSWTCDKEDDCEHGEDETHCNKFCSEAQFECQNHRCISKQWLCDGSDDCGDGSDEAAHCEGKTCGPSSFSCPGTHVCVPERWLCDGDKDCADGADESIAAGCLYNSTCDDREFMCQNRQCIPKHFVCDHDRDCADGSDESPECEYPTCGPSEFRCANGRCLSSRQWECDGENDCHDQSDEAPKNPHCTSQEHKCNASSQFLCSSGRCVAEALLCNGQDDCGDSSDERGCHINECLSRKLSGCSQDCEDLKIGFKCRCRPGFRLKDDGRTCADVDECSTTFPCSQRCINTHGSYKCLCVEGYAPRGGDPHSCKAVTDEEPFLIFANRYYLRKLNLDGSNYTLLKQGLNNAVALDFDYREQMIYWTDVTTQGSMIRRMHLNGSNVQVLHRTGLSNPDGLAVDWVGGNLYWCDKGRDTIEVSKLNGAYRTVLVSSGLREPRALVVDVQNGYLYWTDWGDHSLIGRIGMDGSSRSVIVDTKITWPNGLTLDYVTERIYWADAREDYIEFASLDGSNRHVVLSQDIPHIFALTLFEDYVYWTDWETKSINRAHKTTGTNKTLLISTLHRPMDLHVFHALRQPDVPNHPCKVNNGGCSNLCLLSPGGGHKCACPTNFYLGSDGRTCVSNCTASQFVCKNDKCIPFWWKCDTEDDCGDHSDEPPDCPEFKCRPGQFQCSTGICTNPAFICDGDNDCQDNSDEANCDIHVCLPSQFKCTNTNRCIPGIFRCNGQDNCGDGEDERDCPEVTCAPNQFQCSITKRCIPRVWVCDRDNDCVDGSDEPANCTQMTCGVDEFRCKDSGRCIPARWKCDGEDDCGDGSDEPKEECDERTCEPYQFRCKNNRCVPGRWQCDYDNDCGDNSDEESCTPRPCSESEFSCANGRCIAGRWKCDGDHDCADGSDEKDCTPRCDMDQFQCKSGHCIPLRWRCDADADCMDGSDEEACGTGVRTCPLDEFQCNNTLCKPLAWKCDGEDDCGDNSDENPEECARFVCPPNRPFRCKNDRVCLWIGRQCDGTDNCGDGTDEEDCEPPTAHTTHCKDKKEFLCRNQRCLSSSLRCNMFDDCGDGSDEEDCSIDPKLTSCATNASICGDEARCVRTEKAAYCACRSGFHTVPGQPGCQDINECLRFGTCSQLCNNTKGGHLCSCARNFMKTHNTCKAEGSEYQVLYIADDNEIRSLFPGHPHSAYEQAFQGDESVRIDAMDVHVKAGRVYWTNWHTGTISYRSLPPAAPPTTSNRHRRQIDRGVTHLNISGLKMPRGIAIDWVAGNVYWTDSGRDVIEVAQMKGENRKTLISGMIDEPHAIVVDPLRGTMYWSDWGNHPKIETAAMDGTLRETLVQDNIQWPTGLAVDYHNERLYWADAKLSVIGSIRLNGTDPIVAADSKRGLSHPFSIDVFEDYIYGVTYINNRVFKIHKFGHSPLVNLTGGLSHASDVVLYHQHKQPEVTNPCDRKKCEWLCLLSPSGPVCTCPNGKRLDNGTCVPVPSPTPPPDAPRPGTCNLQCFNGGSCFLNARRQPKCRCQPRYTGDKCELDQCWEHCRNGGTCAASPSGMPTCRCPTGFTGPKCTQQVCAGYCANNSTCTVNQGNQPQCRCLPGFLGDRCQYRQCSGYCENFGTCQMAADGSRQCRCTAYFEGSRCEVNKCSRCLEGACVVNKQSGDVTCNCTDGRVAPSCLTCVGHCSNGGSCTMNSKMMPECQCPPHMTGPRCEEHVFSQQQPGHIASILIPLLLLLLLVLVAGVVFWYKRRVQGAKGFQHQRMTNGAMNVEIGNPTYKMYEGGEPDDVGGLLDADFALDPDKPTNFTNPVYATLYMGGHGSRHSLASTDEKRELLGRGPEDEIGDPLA

Biological target: low-density lipoprotein (LDL) receptor-related protein 1 (LRP1), purified human full-length (human) (UniProt Q07954)
Experiment: ELISA; solid-phase binding assay; human full-length LRP1 (10 nmol/L) coated overnight at 4 °C onto microtiter plates in 50 mmol/L Tris-HCl (pH 7.5)/150 mmol/L NaCl/10 mmol/L CaCl2; 0-200 nmol/L Wnt in 5% BSA blocking solution, 30 min at RT; bound Wnt detected with a specific antibody; signal of wells without LRP1 subtracted; apparent KD (K_D,app), extrapolated from a one-phase decay nonlinear fit; both purified

binding: no binding (tested: >200 nmol/L)
B1: Wnt3a (ligand, UniProt P56704 19-352, looked up)
chain: SYPIWWSLAVGPQYSSLGSQPILCASIPGLVPKQLRFCRNYVEIMPSVAEGIKIGIQECQHQFRGRRWNCTTVHDSLAIFGPVLDKATRESAFVHAIASAGVAFAVTRSCAEGTAAICGCSSRHQGSPGKGWKWGGCSEDIEFGGMVSREFADARENRPDARSAMNRHNNEAGRQAIASHMHLKCKCHGLSGSCEVKTCWWSQPDFRAIGDFLKDKYDSASEMVVEKHRESRGWVETLRPRYTYFKVPTERDLVYYEASPNFCEPNPETGSFGTRDRTCNVSSHGIDGCDLLCCGRGHNARAERRREKCRCVFHWCCYVSCQECTRVYDVHTCK
notes: Wnt3a, purified protein; also called purified Wnt3a; source: purified
